Experimental data from PubChem BioAssay AID504467 (National Center for Advancing Translational Sciences (NCATS), 2011).
In all, about 330,000 compounds went through this assay and about 7,700 (2.3%) were called active. The inconclusive results got no clear call from the source; some entries with a clear call stand among them for comparison. Calls follow the shape of the dose curve; as a rule, active = well fitted inhibition curve with a large enough effect; inconclusive = small, poorly fitted or top-dose-only effect, or effect the other way; inactive = flat fitted curve, though single readings scatter. Potencies beside an inconclusive call are fits to weak or partial responses and may not hold up.
Potency is read from the fitted curve at half-maximal effect.

Test: qHTS screen for small molecules that inhibit ELG1-dependent DNA repair in human embryonic kidney (HEK293T) cells expressing luciferase-tagged ELG1; also: nearly all actives have a fitted effect of over 55% in size
Details: HEK293T ELG1-luciferase reporter, luminescence, 16 h, DNA damage induced by 5-fluorouridine; series mostly up to 46.1 µM
Procedure, shortened: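 Reporter activity after DNA damage by 5-fluorouridine is monitored. Compound-treated cells incubate 16 hr at 37 °C, then ONE-Glo is added for 30 min before luminescence reading.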
For `CC1C/C(=C\c2cccnc2)C(=O)/C(=C/c2cccnc2)C1` (configuration not stated), the Potency was active: 2.06 µM. In the case of `Cc1nc2ccccc2c(=O)n1-c1cccc(NC(=O)c2cccs2)c1`, the Potency was inconclusive: 20.6 µM [inhibitor, single point]. With `Cn1c(CNC(=O)CCNC(=O)c2ccc(F)c(F)c2)cc(=O)n(C)c1=O` the Potency was inconclusive: 6.51 µM [inhibitor, single point]. With `CCOC(=O)C1CCCN(C(=O)CNC(=O)c2nn(-c3ccc(OC)c(Cl)c3)c(=O)c3ccccc23)C1` (configuration not stated) the Potency was inconclusive: 13 µM [inhibitor, partial curve, poor fit]. For `COc1cccc(Cl)c1NC(=O)N1CCc2c([nH]c3ccccc23)C1C(F)(F)F` (configuration not stated), the Potency was inconclusive: 29.1 µM [inhibitor, single point]. With `CN(C)c1ccc(-c2nnn(Cc3ccccc3Br)n2)cc1` the Potency was “inactive”. For `CC(=O)Nc1cccc(OCC(=O)Nc2ccc(F)cc2)c1`, the Potency was inconclusive: 25.9 µM [activator, single point]. With `CC1(C)Cc2c(cnn2-c2ccccc2)C(NC(=O)CCN2CCCC2=O)C1` (configuration not stated) the Potency was “inactive”. In the case of `Cc1ccc(NC(=O)CNC(=O)CC23CC4CC(CC(C4)C2)C3)c(O)c1`, the Potency was “inactive”. With `CCOC(=O)C1(Cc2ccc(OC)cc2)CCN(C(=O)c2cccc3nccnc23)CC1` the Potency was “inactive”. With `Cc1ccc(S(=O)(=O)NCc2ccccc2)cc1C(=O)N1CCCC(C(F)(F)F)C1` (configuration not stated) the Potency was “inactive”. In the case of `O=C(Nc1ccc(S(=O)(=O)N2CCCCC2)cc1)c1ccc(Cl)nc1`, the Potency was inconclusive: 29.1 µM [inhibitor, single point]. With `CCC(=O)Nc1cccc(-c2nc3ccccc3o2)c1` the Potency was “inactive”. With `O=C(OCc1ccccc1)c1ccc(Br)o1` the Potency was inconclusive: 13 µM [activator, partial curve, poor fit]. For `O=C(Nc1ccc(Oc2nnc(-c3ccccc3)c3ccccc23)cc1)c1ccccc1`, the Potency was active: 23.1 µM. In the case of `CCOc1ccc(Nc2nc(Cc3nnc(SCC(=O)c4ccc(C)c(C)c4)o3)cs2)cc1`, the Potency was active: 23.1 µM. With `CN(C)C(=O)NC1c2ccccc2-c2ccccc21` the Potency was “inactive”. In the case of `CC1CN(C(=S)NC(=O)c2ccccc2)CC(C)O1` (configuration not stated), the Potency was “inactive”. With `O=C(/C=C/c1cccnc1)c1cccc(O)c1` the Potency was inconclusive: 29.1 µM [activator, single point]. With `Cc1ccc(-n2c(-c3ccco3)nc3c(cnn3-c3ccc(C)cc3)c2=O)cc1` the Potency was “inactive”. With `COc1ccccc1N1CCN(C(=O)c2cc3c(C)nc4ccccc4c3o2)CC1` the Potency was active: 13 µM. For `O=C(c1sc2ccccc2c1Cl)N1CCN(c2ccccn2)CC1`, the Potency was inconclusive: 20.6 µM [inhibitor, single point]. In the case of `Cc1c(C(=O)Nc2cc(S(=O)(=O)N3CCOCC3)ccc2N2CCN(C)CC2)oc2ccccc12`, the Potency was active: 16.4 µM. For `C=CCN1C(=Nc2ccccc2)SC/C1=C\C(=O)OC`, the Potency was inconclusive: 25.9 µM [activator, partial curve, poor fit]. For `c1ccc(Nc2nc(NCC3CCCO3)c3ccccc3n2)cc1` (configuration not stated), the Potency was inconclusive: 29.1 µM [inhibitor, single point]. In the case of `CCSc1nnc2n(-c3ccc(OC)cc3)c(=O)c3c4c(sc3n12)CCCC4`, the Potency was inconclusive: 23.1 µM [inhibitor, partial curve]. With `Cc1ccc(S(=O)(=O)n2nc(OC(=O)c3c(-c4ccccc4Cl)noc3C)cc2N)cc1` the Potency was inconclusive: 8.2 µM [activator, partial curve, poor fit]. In the case of `CCN(CC)CCNC(=O)c1cc2c(=O)n(CC)c3ccccc3c2s1`, the Potency was inconclusive: 18.3 µM [activator, partial curve]. In the case of `COc1ccc(C(=O)O/N=C(\N)c2cccc(C)c2)cc1OC`, the Potency was inconclusive: 18.3 µM [activator, partial curve]. For `CCOC(=O)c1c(NC(=O)C(C)N2CCN(C(=O)c3ccco3)CC2)sc2c1CCCC2` (configuration not stated), the Potency was active: 7.31 µM. With `Cc1ccc(NC(=O)c2onc(C)c2Cl)cc1` the Potency was inconclusive: 16.4 µM [activator, partial curve]. In the case of `O=C(Cc1cccc2ccccc12)NC(NC(=S)Nc1ccccc1Cl)C(Cl)(Cl)Cl` (configuration not stated), the Potency was “inactive”. With `COc1ccccc1CNC(=O)CN1C(=O)NC2(CCCCCCC2)C1=O` the Potency was “inactive”. For `O=C(CN1CCOCC1)Nc1ccc(C2CCCCC2)cc1`, the Potency was inconclusive: 13 µM [activator, partial curve]. With `CC(NC(=O)NC(=O)c1ccc(Cl)cc1Cl)C1CC1` (configuration not stated) the Potency was inconclusive: 23.1 µM [activator, single point]. With `O=C(Nc1ccccc1F)c1ccc(CSc2ccccc2)o1` the Potency was inconclusive: 23.1 µM [activator, partial curve]. With `CC1CCCCN1CCNC(=O)c1ccc2c(c1)N(Cc1ccccc1)C(=O)c1ccccc1S2(=O)=O` (configuration not stated) the Potency was “inactive”. In the case of `O=C(O)c1ccc(S(=O)(=O)c2ccc([N+](=O)[O-])cc2[N+](=O)[O-])cc1`, the Potency was “inactive”. For `O=C(O)c1cc(NN=Nc2cccc([N+](=O)[O-])c2)cc([N+](=O)[O-])c1`, the Potency was “inactive”. With `Cc1ccc(OCC(=O)N/N=C\c2cccs2)c([N+](=O)[O-])c1` the Potency was inconclusive: 20.6 µM [activator, partial curve]. In the case of `O=C(NNC(=O)c1ccc(Oc2cc(Cl)cc(Cl)c2)o1)c1ccccc1`, the Potency was inconclusive: 16.4 µM [inhibitor, single point]. For `Cc1cccc(-n2ncc3c(NCc4cccs4)ncnc32)c1`, the Potency was inconclusive: 3.66 µM [activator, single point]. In the case of `COC(=O)c1ccc(CN2CCN(CC=C(C)C)C(CCO)C2)cc1` (configuration not stated), the Potency was “inactive”. In the case of `CCCOc1ccccc1NC(=O)Nc1ccccc1Cl`, the Potency was inconclusive: 2.59 µM [inhibitor, full curve]. With `Cc1ccc(-c2cc(C(=O)NCc3cccs3)no2)cc1` the Potency was inconclusive: 5.17 µM [activator, full curve]. For `COc1ccc(CCNC(=O)[C@H](CC(C)C)NC(=O)N2CCn3c2nc2ccccc23)cc1OC`, the Potency was “inactive”. With `O=C(NNC(=O)c1ccc(Cl)cc1Cl)c1cccs1` the Potency was inconclusive: 13 µM [activator, partial curve].
